Assay results from PubChem BioAssay (NCATS).
The shares of active, inactive and inconclusive entries below differ from those in the screen. Potencies beside an inconclusive call are fits to weak or partial responses and may not hold up. The source made the active and inactive calls. Calls follow the shape of the dose curve; as a rule, active = well fitted cell-killing curve with a large enough effect; inconclusive = small, poorly fitted or top-dose-only effect, or effect the other way; inactive = no such curve, though single readings can be large or run the other way.

Assay: Quantitative High-Throughput drug screen in 47 multiple myeloma cell lines against the NCATS MIPE library collection: MM1S_ATCC cell viability assay (AID 1918980); also: nearly all actives have a fitted effect of over 45% in size
Conditions: MM1S myeloma viability, CellTiter-Glo ATP luminescence, 48 h; series mostly up to 45.8 µM; viability (% of control): at the top concentration
Description: PI: Beverly A. Mock Ph.D.
Laboratory of Cancer Biology and Genetics,
Center for Cancer Research, National Cancer Institute,
National Institute of Health, Bethesda, Maryland
Drug resistance and disease progression are common in multiple myeloma (MM) patients, underscoring the need for new therapeutic combinations. […] We hypothesized that effective combinations would reduce MYC expression and enhance p16 activity. […] These preclinical data identify potentially useful drug combinations for evaluation in drug-resistant MM and reveal potential mechanisms of combined drug sensitivity.
Described herein is the primary MIPE qHTS used to cherrypick compounds. Validated compounds were then further tested for potential synergistic activiy.
[1] Peat TJ, Gaikwad SM, Dubois W, Gyabaah-Kessie N, Zhang S, Gorjifard S, Phyo Z, Andres M, Hughitt VK, Simpson RM, Miller MA, Girvin AT, Taylor A, Williams D, D'Antonio N, Zhang Y, Rajagopalan A, Flietner E, Wilson K, Zhang X, Shinn P, Klumpp-Thomas C, McKnight C, Itkin Z, Chen L, Kazandijian D, Zhang J, Michalowski AM, Simmons JK, Keats J, Thomas CJ, Mock BA. Drug combinations identified by high-throughput screening promote cell cycle transition and upregulate Smad pathways in myeloma. Cancer Lett. 2023 Aug 1;568:216284. doi: 10.1016/j.canlet.2023.216284. Epub 2023 Jun 24. PMID: 37356470; PMCID: PMC10408729.
SEQUENCE No. (e.g., 1, 2, 3, etc.); […] (e.g., Cells, Incubation, Reagent, etc.); VALUE and DESCRIPTION.
1; Cells; 5 uL; white, solid bottom 1536-well Greiner assay plate.
2; Compounds; 23 nL; Kalypsis pin tool (Wako USA) equipped with a 1536-well pin head to transfer to the assay plates.
3; Incubation; 48 hours; 37C incubation.
4; Reagent;5uL; CellTiter Glo (Promega).
5; Detector; 425V; Luminescence; Viewlux PerkinElmer.
NOTES (numbers refer to Sequence numbers above)
1. The cell-based screening methods employed in this study were like those previously published. Briefly, the corresponding myeloma cell lines were screened in 1,536-well plates with 500 cells, 5-uL per well for inhibition of cell viability (assessed by measuring ATP levels with CellTiterGlo).
2. NCATS MIPE 4.0 library of approved and investigational drugs were added using the Kalypsis pin tool. Wells treated with DMSO only for 100% viability and media only for 0% viability were used as controls.
3. The assay plates were covered and incubated for 48 hours in a 37C, 5% CO2 incubator with controlled humidity.
4. After 48 hours, CellTilter-GloTM luminescent substrate mix (Promega) reagent was added to the assay plate and plates we incubated for 5 min at room temperature.
5. Signal was measured as median relative luminescence units on a ViewLux (PerkinElmer) multiplate reader.
[1] Heske CM, Davis MI, Baumgart JT, Wilson K, Gormally MV, Chen L, Zhang X, Ceribelli M, Duveau DY, Guha R, Ferrer M, Arnaldez FI, Ji J, Tran HL, Zhang Y, Mendoza A, Helman LJ, Thomas CJ. Matrix Screen Identifies Synergistic Combination of PARP Inhibitors and Nicotinamide Phosphoribosyltransferase (NAMPT) Inhibitors in Ewing Sarcoma. Clin Cancer Res. 2017 Dec 1;23(23):7301-7311. doi: 10.1158/1078-0432.CCR-17-1121. Epub 2017 Sep 12. PMID: 28899971; PMCID: PMC6636827.
Potency is read from the fitted curve at half-maximal effect.

Question: Which Potency does the source give for `CCN(CC)CCCC(C)Nc1ccnc2cc(Cl)ccc12` (stereo not given) here?
Answer: inconclusive: 18.7 µM [cytotoxic, partial curve, poor fit]

Question: Which Potency does the source give for `NC(=O)c1cccc(N)c1` here?
Answer: inconclusive: 33.2 µM [cytotoxic, single point]

Question: With `CN1C(C(=O)Nc2ccccn2)=C(O)c2sc(Cl)cc2S1(=O)=O` as the molecule, how does the Potency read?
Answer: active: 5.26 µM

Question: Which Potency does the source give for `Cc1cnc(CNC(=O)c2c(=O)c3ccc(N4CCCN(C)CC4)nc3n3c2sc2ccccc23)cn1` here?
Answer: active: 2.88 µM

Question: Which Potency does the source give for `CCn1cc(C(=O)O)c(=O)c2cc(F)c(N3CCN(C)CC3)cc21` here?
Answer: inconclusive: 11.8 µM [cytotoxic, single point]

Question: Which Potency does the source give for `CCc1cccc(CC)c1NC(=O)N1Cc2[nH]nc(NC(=O)c3ccc(N4CCN(C)CC4)cc3)c2C1` here?
Answer: inconclusive: 20.9 µM [cytotoxic, partial curve]

Question: With `C1CCC(C(CC2CCCCN2)C2CCCCC2)CC1` (stereo not given) as the molecule, how does the Potency read?
Answer: active: 6.62 µM

Question: Which Potency does the source give for `Cc1ccccc1C(=O)Nc1ccc(C(=O)N2CCCC(O)c3cc(Cl)ccc32)c(C)c1` (stereo not given) here?
Answer: inconclusive: 0.0332 µM [rising, full curve, poor fit]

Question: Which Potency does the source give for `C[C@H](Cn1cnc2c(N)ncnc21)OCP(=O)(O)O` here?
Answer: inconclusive: 0.0083 µM [rising, full curve, poor fit]

Question: With `COc1ccnc2[nH]cc(C(=O)C(=O)N3CCN(C(=O)c4ccccc4)C[C@@H]3C)c12` as the molecule, how does the “viability (% of control)” value read?
Answer: inactive: 146%

Question: With `OCC(O)C(O)C(O)CO` (stereo not given) as the molecule, how does the “viability (% of control)” value read?
Answer: inactive: 118%

Question: Which Potency does the source give for `Oc1cc2c(cc1O)C1c3ccc(O)c(O)c3OCC1(O)C2` (stereo not given) here?
Answer: active: 9.35 µM

Question: With `CS(=O)(=O)c1ccc(C(=O)Nc2ccc(Cl)c(-c3ccccn3)c2)c(Cl)c1` as the molecule, how does the Potency read?
Answer: inconclusive: 5.9 µM [cytotoxic, full curve, poor fit]

Question: Which Potency does the source give for `CC(C)C[C@H](NC(=O)[C@@H](O)[C@H](N)Cc1ccccc1)C(=O)O` here?
Answer: active: 18.7 µM

Question: Which Potency does the source give for `COC(=O)[C@@H]1CC2=CC(=O)CC[C@]2(C)[C@@]23O[C@@H]2C[C@@]2(C)[C@H](CC[C@@]24CCC(=O)O4)[C@@H]13` here?
Answer: inconclusive: 0.332 µM [rising, full curve, poor fit]

Question: Which Potency does the source give for `O=C(c1ccc(C(=O)N2CCC(N3CCCC3)CC2)c(Nc2ccccc2)c1)N1CCC(N2CCCC2)CC1` here?
Answer: inconclusive: 11.8 µM [cytotoxic, single point]

Question: With `Nc1ccn([C@@H]2O[C@H](CO)[C@@H](O)C2O)c(=O)n1` (stereo not given in full) as the molecule, how does the Potency read?
Answer: inconclusive: 0.469 µM [cytotoxic, full curve]

Question: Which Potency does the source give for `Clc1ccc2c(c1)C(N1CCNCC1)=Nc1ccccc1O2` here?
Answer: active: 7.43 µM

Question: Which Potency does the source give for `CN[C@H]1CCc2cc(OC)c(OC)c(OC)c2-c2ccc(OC)c(=O)cc21` here?
Answer: inconclusive: 0.0662 µM [cytotoxic, full curve, poor fit]

Question: Which “viability (% of control)” value does the source give for `C[C@@H](N)C1CCC(C(=O)Nc2ccncc2)CC1` (stereo not given in full) here?
Answer: inactive: 126%

Question: For `COc1ccc(C2CNC(=O)C2)cc1OC1CCCC1` (stereo not given), which Potency is on record?
Answer: inconclusive: 0.0166 µM [rising, full curve, poor fit]

Question: For `Cc1cc(SCc2sc(-c3ccc(C(F)(F)F)cc3)nc2C)ccc1OCC(=O)O`, which Potency is on record?
Answer: inconclusive: 0.001 µM [cytotoxic]

Question: For `CCc1cc(Nc2nccc(-c3c(-c4ccc(OC)c(C(=O)Nc5c(F)cccc5F)c4)nc4ccccn34)n2)c(OC)cc1N1CCC(N2CCN(S(C)(=O)=O)CC2)CC1`, which Potency is on record?
Answer: inconclusive: 23.5 µM [cytotoxic, partial curve, poor fit]

Question: Which Potency does the source give for `O=C(c1ccc(OCCN2CCCCC2)cc1)c1c(-c2ccc(O)cc2)sc2cc(O)ccc12` here?
Answer: inconclusive: 23.5 µM [cytotoxic, partial curve]

Question: With `NC1=N[C@H]2[C@H](CS[C@H]2CCCCC(=O)O)N1` as the molecule, how does the “viability (% of control)” value read?
Answer: inactive: 147% [at 23.2 µM]

Question: For `OC[C@H]1O[C@@H](O[C@H]2[C@@H](O)[C@@](O)(CO)O[C@@H]2CO)[C@H](O)[C@@H](O)[C@@H]1O`, which “viability (% of control)” value is on record?
Answer: inactive: 134%

Question: Which Potency does the source give for `Cn1cnc([N+](=O)[O-])c1Sc1ncnc2nc[nH]c12` here?
Answer: inconclusive: 20.9 µM [cytotoxic, partial curve]

Question: For `C#Cc1cccc(Nc2ncnc3cc(OCCOC)c(OCCO)cc23)c1`, which Potency is on record?
Answer: active: 3.72 µM

Question: For `CC(C)N(CC[C@H](c1ccccc1)c1cc(CO)ccc1O)C(C)C`, which Potency is on record?
Answer: inconclusive: 0.0296 µM [rising, full curve, poor fit]

Question: Which Potency does the source give for `C#C[C@]1(O)CC[C@@H]2[C@@H]3CCC4=CC(=O)CC[C@@H]4[C@H]3CC[C@@]21CC` here?
Answer: inconclusive: 23.5 µM [cytotoxic, single point]

Question: For `CC(=O)OC[C@@H]1O[C@@H](n2ccc(=O)[nH]c2=O)[C@H](OC(C)=O)[C@H]1OC(C)=O`, which “viability (% of control)” value is on record?
Answer: inactive: 141%

Question: For `Cc1nn(Cc2ccccc2Cl)c(C)c1CN(C)CC(O)COc1ccc(Cl)cc1` (stereo not given), which Potency is on record?
Answer: inconclusive: 23.5 µM [cytotoxic, partial curve]

Question: With `CC(C(C)N1CC(=O)NC(=O)C1)N1CC(=O)NC(=O)C1` (stereo not given) as the molecule, how does the “viability (% of control)” value read?
Answer: inactive: 118%

Question: Which Potency does the source give for `COC1=C(OC)C(=O)C(CC=C(C)CCC=C(C)CCC=C(C)CCC=C(C)CCC=C(C)CCC=C(C)CCC=C(C)CCC=C(C)CCC=C(C)CCC=C(C)C)=C(C)C1=O` here?
Answer: inconclusive: 0.0047 µM [rising, full curve]

Question: Which Potency does the source give for `COc1ccccc1OCC(O)COC(N)=O` (stereo not given) here?
Answer: inconclusive: 0.0066 µM [rising, full curve, poor fit]

Question: Which “viability (% of control)” value does the source give for `NC[C@H]1O[C@H](O[C@H]2[C@@H](O)[C@@H](O[C@H]3O[C@H](CO)[C@@H](O)[C@H](N)[C@@H]3O)[C@H](N)C[C@@H]2N)[C@H](N)C[C@H]1O` here?
Answer: inactive: 141%

Question: For `CCN[C@H]1C[C@H](C)S(=O)(=O)c2sc(S(N)(=O)=O)cc21`, which Potency is on record?
Answer: inconclusive: 20.9 µM [cytotoxic, partial curve, poor fit]

Question: For `COc1ccc(-n2nc(C(N)=O)c3c2C(=O)N(c2ccc(N4CCCCC4=O)cc2)CC3)cc1`, which Potency is on record?
Answer: inconclusive: 0.0066 µM [rising, full curve, poor fit]

Question: Which Potency does the source give for `CN(C)c1ccc(-c2nc3ncc(Cl)c(N4CCN(CC(=O)Nc5nccs5)CC4)c3[nH]2)cc1` here?
Answer: inconclusive: 37.2 µM [cytotoxic, partial curve, poor fit]

Question: With `C[C@]12C=CC(=O)N[C@@H]1CC[C@H]1[C@H]3CC[C@@H](C(=O)Nc4cc(C(F)(F)F)ccc4C(F)(F)F)[C@@]3(C)CC[C@@H]12` as the molecule, how does the Potency read?
Answer: inconclusive: 33.2 µM [cytotoxic, partial curve, poor fit]
